Taken from: PubChem BioAssay AID686938 (Drosophila RNAi Screening Center, 2013)

Screen: 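Fly genes required for calcium entry once internal stores are emptied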 (primary screen)
Cell system: Drosophila S2R+ cells
Knock-down reagent: long dsRNA against Drosophila genes, about 0.25 µg dsRNA per well, roughly 10,000 cells
Duration: 5 days of knock-down before the calcium assay
Conditions: thapsigargin (SERCA pump blocker) to empty calcium stores; entry signal taken 4 min after adding it
Read-out: 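Per-well fluo-4 fluorescence in two replicates, unnormalised, measured in resting cells and 4 min after store depletion by the SERCA blocker thapsigargin; ratio of the two present in few wells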
Scale: calcium entry signal: higher = stronger calcium signal after store depletion; resting calcium signal: higher = higher resting calcium signal
Rule for the call: 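Hit if the duplicate-averaged plate z-score for entry over resting signal is under −3; wells with weak total dye signal (Fmax z < −2) or more than 5 off-targets removed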
Meaning of the calls: active = strongly reduced calcium entry; inactive = no strong reduction
The deposit covers about 23,000 reagents; this is a random part of those that have a named target and a result. In the full data, 75 (0.33%) were called active. 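Raw plate signals without normalisation; calls rest on plate z-scores that were not deposited; ratio present for only 364 wells.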 A number with no mark means an inactive call. A plus sign joins genes that one reagent is predicted to hit. No sequences are given here. Not given: the dose of the treatment.

no.	target gene	dsRNA	calcium entry signal, replicate 1 (fluorescence units)	calcium entry signal, replicate 2 (fluorescence units)	resting calcium signal, replicate 1 (fluorescence units)	resting calcium signal, replicate 2 (fluorescence units)
1	mdu (GeneID 32201)	DRSC19860	4.68e7	3.26e7	2.78e7	2.12e7
2	mdu (GeneID 32201)	DRSC23192	4.19e7	4.49e7	1.86e7	1.79e7
3	ohgt (GeneID 41230)	DRSC15521	2.36e7	1.75e7	1.21e7	9.62e6
4	Gem4b + Gem4c	DRSC17294	4.38e7	3.48e7	2.18e7	1.41e7
5	CG13871 (GeneID 37303)	DRSC06430	5.41e7	5.86e7	2.22e7	2.58e7
6	CG15756 (GeneID 32308)	DRSC19721	3.43e7	3.94e7	1.63e7	1.76e7
7	CG43104 (retired record) (GeneID 12798318)	DRSC05624	2.63e7	5.54e7	1.28e7	2.49e7
8	CG7135 (GeneID 32793)	DRSC20026	3.76e7	3.16e7	1.99e7	1.33e7
9	Eip78C (GeneID 40345)	DRSC11864	1.87e7	3.01e7	1.12e7	1.69e7
10	Eip78C (GeneID 40345)	DRSC23097	4.40e7	4.07e7	2.03e7	1.66e7
11	mRpS33 (GeneID 41991)	DRSC14239	3.89e7	6.42e7	1.77e7	6.39e7
12	dia (GeneID 35340)	DRSC03519	3.87e7	5.55e7	2.01e7	2.68e7
13	CG10366 (GeneID 35258)	DRSC02046	5.55e7		2.66e7	
14	CG2127 (GeneID 35811)	DRSC06821	3.71e7	3.86e7	1.72e7	1.65e7
15	Fmr1 (GeneID 37528)	DRSC16674	3.08e7	2.32e7	1.62e7	1.36e7
16	CG14095 (GeneID 40112)	DRSC10098	3.12e7	4.57e7	1.51e7	1.89e7
17	DAT (GeneID 36849)	DRSC07394	4.86e7	5.57e7	2.17e7	2.71e7
18	inv (GeneID 36239)	DRSC07633	3.85e7	3.07e7	2.00e7	1.43e7
19	Wnt5 (GeneID 32838)	DRSC20300	3.72e7	3.35e7	1.82e7	1.48e7
20	Usp39 (GeneID 32881)	DRSC20032	3.39e7	4.00e7	1.51e7	1.52e7
21	CG8172 (GeneID 35905)	DRSC07089	5.97e7	3.74e7	2.39e7	1.59e7
22	CG8172 (GeneID 35905)	DRSC22113	3.54e7	3.61e7	1.56e7	1.91e7
23	CG5612 (GeneID 43316)	DRSC15844	1.53e7	3.31e7	8.93e6	1.42e7
24	CG13288 (GeneID 38665)	DRSC09962	1.86e7	4.25e7	8.75e6	1.73e7
25	CG11191 (GeneID 35765)	DRSC06056	3.14e7	2.92e7	1.42e7	1.52e7
26	CG11191 (GeneID 35765)	DRSC23224	3.49e7	3.84e7	1.70e7	1.77e7
27	Cyp28d1 (GeneID 33749)	DRSC03298	4.16e7		2.01e7	
28	Cyp28d1 (GeneID 33749)	DRSC21331	2.58e7	2.58e7	1.42e7	1.34e7
29	Ufsp2 (GeneID 39687)	DRSC10231	4.01e7	4.17e7	1.97e7	3.05e7
30	RYBP (GeneID 37601)	DRSC04117	3.65e7		1.96e7	
31	qkr54B (GeneID 36966)	DRSC07670	4.91e7	5.11e7	2.20e7	2.28e7
32	ssx (GeneID 31086)	DRSC18492	4.15e7	4.66e7	2.06e7	2.12e7
33	CG42260 (GeneID 37614)	DRSC04172	3.81e7	4.79e7	2.03e7	2.08e7
34	CG42260 (GeneID 37614)	DRSC04385	4.32e7	4.94e7	2.20e7	2.14e7
35	Ak3 (GeneID 41318)	DRSC16075	4.27e7	3.72e7	2.06e7	1.94e7
36	CG7860 (GeneID 32488)	DRSC20060	2.39e7	2.77e7	1.26e7	1.36e7
37	LBR (GeneID 37482)	DRSC04298	2.14e7		1.13e7	
38	Ccp84Ae (GeneID 40821)	DRSC12590	4.85e7	3.81e7	2.30e7	1.66e7
39	CG17580 (GeneID 50228)	DRSC06683	3.59e7	3.64e7	1.87e7	1.63e7
40	Prosbeta5R1 (GeneID 37690)	DRSC04581	2.14e7	2.34e7	1.11e7	1.09e7

Looked up above.
Usp39 (GeneID 32881) [DRSC20032], calcium entry signal, replicate 1 (fluorescence units) = 3.39e7
Entry of CG42260 (GeneID 37614) [DRSC04172] in “calcium entry signal, replicate 1 (fluorescence units)”: 3.81e7
Under “calcium entry signal, replicate 2 (fluorescence units)”, mdu (GeneID 32201) [DRSC19860] shows 3.26e7
Under “resting calcium signal, replicate 1 (fluorescence units)”, ssx (GeneID 31086) [DRSC18492] reads 2.06e7
Under “resting calcium signal, replicate 1 (fluorescence units)”, CG2127 (GeneID 35811) [DRSC06821] shows 1.72e7
